Measured data: PubChem BioAssay AID1259424 (University of Nebraska Medical Center, 2018)

Test: 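Seek colon cancer survival genes behaving like KSR1, using a six-gene signature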 (primary screen)
Cells: human HCT116 colon cancer cells
Reagents: siRNA pool against human genes, 50 nM
Measurement: 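Six signature mRNAs by branched-DNA multiplex assay, scaled to two housekeeping genes and non-targeting median, log2; matched to mean KSR1 knockdown profile by Pearson correlation and euclidean distance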
Reading the numbers: mean correlation with KSR1 profile and KSR1 correlation: higher = expression change more like KSR1 knockdown; mean distance from KSR1 profile: higher = expression change less like KSR1 knockdown
Here is an unselected part of about 14,000 reagents tested. 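Higher correlation or smaller distance means closer resemblance to KSR1 loss; control wells, including KSR1 knockdowns, recur on many plates.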 The record does not give: the time to read-out.

mean correlation with KSR1 profile	mean distance from KSR1 profile	KSR1 correlation, replicate 1	KSR1 correlation, replicate 2	KSR1 correlation, replicate 3	target
-0.902	1.52	-0.527	-0.78	-0.916	PPP2R5C (GeneID 5527)
0.785	1.51	0.7	0.766	0.71	RSPH6A (GeneID 81492)
0.775	1.41	0.307	0.803	0.577	CEP70 (GeneID 80321)
0.0931	2.74	0.186	0.0723	0.0119	TNNC1 (GeneID 7134)
-0.487	3.28	-0.38	-0.516	-0.446	PIEZO1 (GeneID 9780)
-0.475	2.6	-0.357	-0.437	-0.287	DISP3 (GeneID 57540)
-0.462	3.06	-0.407	-0.429	-0.433	ARPC1A (GeneID 10552)
0.196	1.43	-0.0132	0.2	0.188	UBE4B (GeneID 10277)
0.0468	1.58	0.133	-0.177	0.191	TSPAN6 (GeneID 7105)
-0.292	1.6	-0.38	-0.488	-0.0252	FIS1 (GeneID 51024)
-0.0608	1.83	-0.144	0.106	-0.31	MMP25 (GeneID 64386)
0.145	1.48	0.387	0.069	0.00569	ARL6IP1 (GeneID 23204)

Continued, starting with the last 2 of the part before.
mean correlation with KSR1 profile	mean distance from KSR1 profile	KSR1 correlation, replicate 1	KSR1 correlation, replicate 2	KSR1 correlation, replicate 3	target
-0.0608	1.83	-0.144	0.106	-0.31	MMP25 (GeneID 64386)
0.145	1.48	0.387	0.069	0.00569	ARL6IP1 (GeneID 23204)
-0.277	3.7	-0.276	-0.455	-0.242	SENP7 (GeneID 57337)
-0.632	9.22	-0.436	-0.712	-0.437	PNMA8A (GeneID 55228)
0.0684	1.83	0.148	0.314	0.29	RGS16 (GeneID 6004)
0.519	1.81	0.628	0.424	0.468	REG1CP (GeneID 5969)
-0.197	2.69	-0.0945	-0.222	-0.244	ZNF134 (GeneID 7693)
-0.0577	3.01	0.109	-0.113	0.0798	SIX2 (GeneID 10736)
0.363	2.44	0.63	0.0413	0.088	DGKA (GeneID 1606)
-0.351	2.04	-0.436	-0.473	-0.449	NRGN (GeneID 4900)
